# Laboratory results published in the supplement of paper PMC12067093, “Discovery and optimisation of a covalent ligand for TRIM25 and its application to targeted protein ubiquitination” (Chemical Science, 2025).
# By UniProt entry, the sequences of proteins in these tests, tags left out. Where a name states a change or a piece, a line headed by the entry shows the natural chain unless it says otherwise.
# UniProt Q8IYB3: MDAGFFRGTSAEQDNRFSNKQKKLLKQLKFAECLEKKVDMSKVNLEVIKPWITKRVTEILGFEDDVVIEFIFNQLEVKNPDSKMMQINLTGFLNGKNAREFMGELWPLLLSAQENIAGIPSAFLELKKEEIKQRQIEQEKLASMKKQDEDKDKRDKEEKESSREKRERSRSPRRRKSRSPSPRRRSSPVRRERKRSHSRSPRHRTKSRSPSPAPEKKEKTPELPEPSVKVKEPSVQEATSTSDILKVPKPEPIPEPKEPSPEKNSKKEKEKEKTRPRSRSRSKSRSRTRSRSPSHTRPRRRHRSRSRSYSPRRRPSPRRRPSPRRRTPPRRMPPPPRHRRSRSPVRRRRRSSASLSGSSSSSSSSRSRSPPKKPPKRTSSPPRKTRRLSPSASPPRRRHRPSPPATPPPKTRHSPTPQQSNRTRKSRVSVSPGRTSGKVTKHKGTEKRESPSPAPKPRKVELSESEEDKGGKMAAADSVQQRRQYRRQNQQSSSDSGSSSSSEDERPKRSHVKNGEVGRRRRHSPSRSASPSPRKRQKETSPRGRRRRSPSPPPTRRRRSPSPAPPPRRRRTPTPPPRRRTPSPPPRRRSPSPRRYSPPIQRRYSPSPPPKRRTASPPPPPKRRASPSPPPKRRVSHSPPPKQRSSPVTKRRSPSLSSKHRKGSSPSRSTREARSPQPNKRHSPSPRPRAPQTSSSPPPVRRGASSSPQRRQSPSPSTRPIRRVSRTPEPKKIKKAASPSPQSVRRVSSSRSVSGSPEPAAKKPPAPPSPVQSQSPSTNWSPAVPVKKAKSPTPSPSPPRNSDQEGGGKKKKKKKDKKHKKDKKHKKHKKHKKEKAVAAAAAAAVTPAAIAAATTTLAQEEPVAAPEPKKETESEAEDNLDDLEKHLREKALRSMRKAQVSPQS
# UniProt O95630, whole entry, looked up: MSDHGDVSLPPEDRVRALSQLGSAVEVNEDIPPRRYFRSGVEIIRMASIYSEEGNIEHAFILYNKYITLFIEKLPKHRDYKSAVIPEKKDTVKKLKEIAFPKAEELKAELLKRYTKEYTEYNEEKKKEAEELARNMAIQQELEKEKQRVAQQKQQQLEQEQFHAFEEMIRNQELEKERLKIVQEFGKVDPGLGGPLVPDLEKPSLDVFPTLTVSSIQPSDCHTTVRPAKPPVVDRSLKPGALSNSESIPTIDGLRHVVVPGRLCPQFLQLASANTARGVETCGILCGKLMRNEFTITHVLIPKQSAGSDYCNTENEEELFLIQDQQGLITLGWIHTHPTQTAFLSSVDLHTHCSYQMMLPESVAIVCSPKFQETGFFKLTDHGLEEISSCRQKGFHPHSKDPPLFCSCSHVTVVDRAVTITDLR
# UniProt Q9UH65: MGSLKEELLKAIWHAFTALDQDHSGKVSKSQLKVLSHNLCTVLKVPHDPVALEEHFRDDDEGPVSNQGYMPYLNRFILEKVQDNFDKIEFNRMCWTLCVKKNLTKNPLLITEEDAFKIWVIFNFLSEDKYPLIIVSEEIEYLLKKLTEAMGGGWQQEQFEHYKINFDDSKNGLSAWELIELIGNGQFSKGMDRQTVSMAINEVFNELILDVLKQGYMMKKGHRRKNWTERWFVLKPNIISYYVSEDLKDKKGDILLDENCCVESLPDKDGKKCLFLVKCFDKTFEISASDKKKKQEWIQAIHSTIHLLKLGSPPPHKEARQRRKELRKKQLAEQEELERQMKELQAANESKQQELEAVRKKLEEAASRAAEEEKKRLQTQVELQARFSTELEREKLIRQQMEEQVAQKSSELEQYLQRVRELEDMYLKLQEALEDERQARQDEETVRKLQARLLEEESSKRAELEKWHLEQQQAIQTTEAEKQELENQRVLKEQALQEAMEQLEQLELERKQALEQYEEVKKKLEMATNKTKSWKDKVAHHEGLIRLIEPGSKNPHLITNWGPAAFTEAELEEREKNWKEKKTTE
# UniProt Q9UQ35: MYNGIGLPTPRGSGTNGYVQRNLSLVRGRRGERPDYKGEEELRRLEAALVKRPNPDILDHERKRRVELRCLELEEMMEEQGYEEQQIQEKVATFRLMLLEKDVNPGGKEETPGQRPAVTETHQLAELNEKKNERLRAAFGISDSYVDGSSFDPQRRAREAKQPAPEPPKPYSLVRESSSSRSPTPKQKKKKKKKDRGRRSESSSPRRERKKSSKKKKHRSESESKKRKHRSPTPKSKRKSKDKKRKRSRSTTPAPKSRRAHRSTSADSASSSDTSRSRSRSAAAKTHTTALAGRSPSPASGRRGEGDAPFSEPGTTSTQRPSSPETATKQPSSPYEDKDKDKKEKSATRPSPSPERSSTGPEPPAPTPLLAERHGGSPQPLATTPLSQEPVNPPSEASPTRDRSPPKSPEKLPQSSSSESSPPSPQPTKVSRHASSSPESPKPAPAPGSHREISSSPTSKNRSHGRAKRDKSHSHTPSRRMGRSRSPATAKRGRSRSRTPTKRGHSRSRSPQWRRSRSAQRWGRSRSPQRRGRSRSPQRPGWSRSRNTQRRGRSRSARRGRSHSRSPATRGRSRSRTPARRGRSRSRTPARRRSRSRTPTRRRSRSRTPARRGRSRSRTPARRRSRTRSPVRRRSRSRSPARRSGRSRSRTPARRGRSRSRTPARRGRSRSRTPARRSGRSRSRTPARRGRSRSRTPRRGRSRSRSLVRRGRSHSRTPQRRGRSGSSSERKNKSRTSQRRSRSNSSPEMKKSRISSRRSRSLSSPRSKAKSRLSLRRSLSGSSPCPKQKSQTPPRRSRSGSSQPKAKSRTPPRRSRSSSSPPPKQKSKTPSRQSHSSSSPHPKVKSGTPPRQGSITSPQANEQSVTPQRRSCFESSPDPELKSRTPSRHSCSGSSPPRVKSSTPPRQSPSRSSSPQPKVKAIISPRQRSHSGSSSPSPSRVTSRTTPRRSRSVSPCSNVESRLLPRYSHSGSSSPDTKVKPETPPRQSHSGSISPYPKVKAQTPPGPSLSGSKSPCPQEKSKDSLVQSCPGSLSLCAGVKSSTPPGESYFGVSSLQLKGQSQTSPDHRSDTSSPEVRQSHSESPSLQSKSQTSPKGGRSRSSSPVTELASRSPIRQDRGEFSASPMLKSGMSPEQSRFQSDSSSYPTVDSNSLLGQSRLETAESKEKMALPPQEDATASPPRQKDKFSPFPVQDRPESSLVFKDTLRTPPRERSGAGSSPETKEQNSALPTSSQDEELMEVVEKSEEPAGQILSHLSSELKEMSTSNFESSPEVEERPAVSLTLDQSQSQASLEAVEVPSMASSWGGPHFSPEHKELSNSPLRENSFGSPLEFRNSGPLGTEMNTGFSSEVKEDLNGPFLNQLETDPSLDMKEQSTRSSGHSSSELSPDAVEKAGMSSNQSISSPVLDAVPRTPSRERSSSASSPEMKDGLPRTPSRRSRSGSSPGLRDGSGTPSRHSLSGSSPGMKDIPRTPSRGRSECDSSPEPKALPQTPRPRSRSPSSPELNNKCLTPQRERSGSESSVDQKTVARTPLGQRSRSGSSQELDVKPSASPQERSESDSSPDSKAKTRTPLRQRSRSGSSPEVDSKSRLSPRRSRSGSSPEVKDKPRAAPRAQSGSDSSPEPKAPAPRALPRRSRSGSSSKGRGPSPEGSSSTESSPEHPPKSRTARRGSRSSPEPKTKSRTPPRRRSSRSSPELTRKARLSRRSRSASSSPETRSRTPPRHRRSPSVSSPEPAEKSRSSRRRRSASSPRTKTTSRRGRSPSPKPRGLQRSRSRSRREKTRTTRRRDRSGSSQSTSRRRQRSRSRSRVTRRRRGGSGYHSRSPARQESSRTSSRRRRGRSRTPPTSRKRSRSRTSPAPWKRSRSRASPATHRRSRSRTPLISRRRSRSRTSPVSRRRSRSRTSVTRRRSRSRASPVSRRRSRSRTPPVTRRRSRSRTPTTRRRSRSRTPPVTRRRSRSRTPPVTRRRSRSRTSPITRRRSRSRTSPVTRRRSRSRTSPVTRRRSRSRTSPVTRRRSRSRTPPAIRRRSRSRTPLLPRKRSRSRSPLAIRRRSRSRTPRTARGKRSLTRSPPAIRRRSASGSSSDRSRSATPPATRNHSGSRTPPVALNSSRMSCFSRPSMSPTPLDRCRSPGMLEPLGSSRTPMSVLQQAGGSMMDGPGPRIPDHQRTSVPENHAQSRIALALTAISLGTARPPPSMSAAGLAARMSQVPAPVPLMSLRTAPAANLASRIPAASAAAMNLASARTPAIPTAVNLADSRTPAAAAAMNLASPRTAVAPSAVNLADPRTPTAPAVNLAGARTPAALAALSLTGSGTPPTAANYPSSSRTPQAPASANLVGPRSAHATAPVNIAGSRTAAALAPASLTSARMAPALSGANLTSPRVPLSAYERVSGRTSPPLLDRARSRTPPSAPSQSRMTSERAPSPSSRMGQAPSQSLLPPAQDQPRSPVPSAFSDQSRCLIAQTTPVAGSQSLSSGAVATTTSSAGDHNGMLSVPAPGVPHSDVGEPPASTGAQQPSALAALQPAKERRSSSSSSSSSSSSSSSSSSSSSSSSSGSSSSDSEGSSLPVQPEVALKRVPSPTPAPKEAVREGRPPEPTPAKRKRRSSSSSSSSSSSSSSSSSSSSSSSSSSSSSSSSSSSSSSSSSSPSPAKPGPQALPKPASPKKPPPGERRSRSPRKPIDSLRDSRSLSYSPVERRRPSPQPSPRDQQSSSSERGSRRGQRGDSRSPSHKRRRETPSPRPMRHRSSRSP
# The list shows a part of the results.
# Compound: CC1Cc2ccccc2N1C(=O)C1CCCN(C1)C(=O)CCl (mixture of isomers) [TRIM25 ligand 11 (diastereomer mixture)]
# Assay: probe-labelled cysteine peptide fold change vs DMSO (competition) (log2 fold change); higher = less target engagement (more negative = stronger competition)
# Conditions: THP-1, incubation time: 4 h
# 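Further: competitive chemoproteomic profiling in live THP-1 cells with an iodoacetamide desthiobiotin (IA-DTB) probe, comparing probe-labelled peptide intensities in compound-treated cells against DMSO-treated controls.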
Target,probe-labelled cysteine peptide fold change (10 µM),probe-labelled cysteine peptide fold change (50 µM)
SRRM1_Q8IYB3_33_FAECLEK (UniProt Q8IYB3),-0.106,0.055
STAMBP_O95630_282_GVETCGILCGK (UniProt O95630),0.141,0.102
SUPT6H_Q7KZ85_1465_EKPTFIPYFICACK (UniProt Q7KZ85),-0.0763,-0.0985
SWAP70_Q9UH65_261_KGDILLDENCCVESLPDK (UniProt Q9UH65),0.0552,-0.114
SRRM2_Q9UQ35_1016_SPCPQEK (UniProt Q9UQ35),-0.0714,-0.104
SWAP70_Q9UH65_261_GDILLDENCCVESLPDK (UniProt Q9UH65),0.344,0.29
